Test results published in the supplement of paper PMC10849652.
This is one part of the list.

The chains behind the UniProt entries cited, without tags or fusion partners. Where a name states a change or a piece, a line headed by the entry shows the natural chain unless it says otherwise.
UniProt O94822: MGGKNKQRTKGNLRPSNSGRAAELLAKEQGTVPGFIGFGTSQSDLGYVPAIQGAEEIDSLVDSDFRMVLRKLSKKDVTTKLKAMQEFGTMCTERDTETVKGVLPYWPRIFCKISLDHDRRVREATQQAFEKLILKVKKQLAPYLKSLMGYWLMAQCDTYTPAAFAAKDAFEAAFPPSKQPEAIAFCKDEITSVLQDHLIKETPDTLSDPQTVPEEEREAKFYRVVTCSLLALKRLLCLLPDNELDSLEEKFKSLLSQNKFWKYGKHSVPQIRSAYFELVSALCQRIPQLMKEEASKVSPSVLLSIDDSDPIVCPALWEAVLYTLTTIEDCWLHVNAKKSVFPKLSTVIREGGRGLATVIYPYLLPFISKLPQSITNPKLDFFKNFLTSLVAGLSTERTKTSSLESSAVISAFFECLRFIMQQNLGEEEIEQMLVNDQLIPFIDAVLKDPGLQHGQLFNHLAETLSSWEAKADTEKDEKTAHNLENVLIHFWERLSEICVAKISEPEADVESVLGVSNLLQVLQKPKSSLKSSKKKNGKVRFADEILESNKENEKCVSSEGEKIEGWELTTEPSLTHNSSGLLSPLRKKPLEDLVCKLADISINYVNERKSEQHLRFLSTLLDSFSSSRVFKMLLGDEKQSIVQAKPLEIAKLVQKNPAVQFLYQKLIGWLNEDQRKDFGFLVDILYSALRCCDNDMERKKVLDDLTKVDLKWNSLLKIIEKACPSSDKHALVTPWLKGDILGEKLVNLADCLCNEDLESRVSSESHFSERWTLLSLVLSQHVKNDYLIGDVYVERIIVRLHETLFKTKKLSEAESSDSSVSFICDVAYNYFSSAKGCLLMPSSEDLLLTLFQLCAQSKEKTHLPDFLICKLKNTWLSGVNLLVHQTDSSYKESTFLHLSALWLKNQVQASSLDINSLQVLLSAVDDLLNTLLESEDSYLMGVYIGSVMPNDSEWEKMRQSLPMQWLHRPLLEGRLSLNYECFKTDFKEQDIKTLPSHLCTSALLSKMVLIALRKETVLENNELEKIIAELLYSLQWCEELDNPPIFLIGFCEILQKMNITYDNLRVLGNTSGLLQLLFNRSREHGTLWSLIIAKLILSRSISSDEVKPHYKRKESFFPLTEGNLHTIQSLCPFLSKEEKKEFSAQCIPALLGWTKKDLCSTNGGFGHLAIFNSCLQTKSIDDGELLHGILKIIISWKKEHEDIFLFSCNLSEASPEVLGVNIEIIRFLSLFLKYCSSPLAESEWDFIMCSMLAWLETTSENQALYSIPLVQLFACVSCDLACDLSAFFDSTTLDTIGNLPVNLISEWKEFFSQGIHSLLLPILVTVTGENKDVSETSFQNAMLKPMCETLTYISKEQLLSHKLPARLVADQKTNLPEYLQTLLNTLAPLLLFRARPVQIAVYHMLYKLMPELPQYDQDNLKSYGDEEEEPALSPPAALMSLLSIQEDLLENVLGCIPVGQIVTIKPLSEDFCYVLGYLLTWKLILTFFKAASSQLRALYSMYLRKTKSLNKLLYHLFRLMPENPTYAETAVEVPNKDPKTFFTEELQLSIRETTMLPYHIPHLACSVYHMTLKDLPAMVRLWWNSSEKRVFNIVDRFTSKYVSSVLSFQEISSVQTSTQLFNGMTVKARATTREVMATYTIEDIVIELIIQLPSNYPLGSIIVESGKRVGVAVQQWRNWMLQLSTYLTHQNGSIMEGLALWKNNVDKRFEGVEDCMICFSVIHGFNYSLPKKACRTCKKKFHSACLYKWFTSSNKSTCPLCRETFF
UniProt Q6ZN28: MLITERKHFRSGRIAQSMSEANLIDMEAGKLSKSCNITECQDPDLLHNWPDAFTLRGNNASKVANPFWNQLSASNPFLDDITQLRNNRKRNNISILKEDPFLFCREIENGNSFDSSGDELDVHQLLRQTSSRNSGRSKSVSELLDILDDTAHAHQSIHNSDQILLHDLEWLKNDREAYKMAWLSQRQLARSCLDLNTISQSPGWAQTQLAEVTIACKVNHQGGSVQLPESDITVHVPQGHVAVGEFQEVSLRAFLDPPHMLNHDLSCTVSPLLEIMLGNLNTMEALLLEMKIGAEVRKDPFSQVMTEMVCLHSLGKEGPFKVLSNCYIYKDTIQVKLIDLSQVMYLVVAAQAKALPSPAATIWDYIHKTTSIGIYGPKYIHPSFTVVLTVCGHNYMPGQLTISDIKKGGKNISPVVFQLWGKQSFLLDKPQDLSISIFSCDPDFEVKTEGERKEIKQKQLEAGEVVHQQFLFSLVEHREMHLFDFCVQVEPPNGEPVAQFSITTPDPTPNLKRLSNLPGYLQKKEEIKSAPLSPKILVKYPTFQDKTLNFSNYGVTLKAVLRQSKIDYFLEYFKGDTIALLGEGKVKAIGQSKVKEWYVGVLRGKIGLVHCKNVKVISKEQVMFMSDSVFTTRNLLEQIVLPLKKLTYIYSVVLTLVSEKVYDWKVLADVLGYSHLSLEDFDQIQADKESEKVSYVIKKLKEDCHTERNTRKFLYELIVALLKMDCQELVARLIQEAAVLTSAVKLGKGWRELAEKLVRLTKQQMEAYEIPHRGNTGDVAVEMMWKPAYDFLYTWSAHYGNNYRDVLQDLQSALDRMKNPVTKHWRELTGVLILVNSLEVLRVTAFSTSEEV
UniProt Q9NZL9, whole entry, looked up: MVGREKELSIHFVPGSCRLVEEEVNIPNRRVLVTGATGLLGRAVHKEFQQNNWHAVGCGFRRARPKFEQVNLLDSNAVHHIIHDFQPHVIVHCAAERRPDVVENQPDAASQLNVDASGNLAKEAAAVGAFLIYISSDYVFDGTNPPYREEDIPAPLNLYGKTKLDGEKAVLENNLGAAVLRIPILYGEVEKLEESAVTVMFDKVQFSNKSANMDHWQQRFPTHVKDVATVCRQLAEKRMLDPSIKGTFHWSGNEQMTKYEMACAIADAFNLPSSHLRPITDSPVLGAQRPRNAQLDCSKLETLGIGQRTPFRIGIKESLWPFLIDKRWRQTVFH
UniProt Q9UKM7: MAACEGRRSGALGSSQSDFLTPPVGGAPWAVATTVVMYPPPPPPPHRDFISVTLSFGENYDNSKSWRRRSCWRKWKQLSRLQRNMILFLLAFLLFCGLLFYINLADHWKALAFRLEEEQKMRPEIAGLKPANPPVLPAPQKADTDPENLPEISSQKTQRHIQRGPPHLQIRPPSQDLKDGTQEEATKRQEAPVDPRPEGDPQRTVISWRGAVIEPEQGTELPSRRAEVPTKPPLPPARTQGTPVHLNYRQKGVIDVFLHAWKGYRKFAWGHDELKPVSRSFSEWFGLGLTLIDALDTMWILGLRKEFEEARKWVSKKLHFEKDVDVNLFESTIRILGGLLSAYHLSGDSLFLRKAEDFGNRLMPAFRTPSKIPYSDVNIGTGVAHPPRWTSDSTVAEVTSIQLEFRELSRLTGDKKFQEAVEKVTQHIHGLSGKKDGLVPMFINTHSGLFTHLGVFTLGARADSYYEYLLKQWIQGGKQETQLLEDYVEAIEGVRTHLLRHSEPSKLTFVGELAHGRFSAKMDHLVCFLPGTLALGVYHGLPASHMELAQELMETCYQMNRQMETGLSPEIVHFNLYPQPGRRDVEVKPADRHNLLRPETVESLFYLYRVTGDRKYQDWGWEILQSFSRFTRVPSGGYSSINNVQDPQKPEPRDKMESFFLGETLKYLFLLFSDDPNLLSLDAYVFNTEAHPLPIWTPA
UniProt Q8WXG6, whole entry, looked up: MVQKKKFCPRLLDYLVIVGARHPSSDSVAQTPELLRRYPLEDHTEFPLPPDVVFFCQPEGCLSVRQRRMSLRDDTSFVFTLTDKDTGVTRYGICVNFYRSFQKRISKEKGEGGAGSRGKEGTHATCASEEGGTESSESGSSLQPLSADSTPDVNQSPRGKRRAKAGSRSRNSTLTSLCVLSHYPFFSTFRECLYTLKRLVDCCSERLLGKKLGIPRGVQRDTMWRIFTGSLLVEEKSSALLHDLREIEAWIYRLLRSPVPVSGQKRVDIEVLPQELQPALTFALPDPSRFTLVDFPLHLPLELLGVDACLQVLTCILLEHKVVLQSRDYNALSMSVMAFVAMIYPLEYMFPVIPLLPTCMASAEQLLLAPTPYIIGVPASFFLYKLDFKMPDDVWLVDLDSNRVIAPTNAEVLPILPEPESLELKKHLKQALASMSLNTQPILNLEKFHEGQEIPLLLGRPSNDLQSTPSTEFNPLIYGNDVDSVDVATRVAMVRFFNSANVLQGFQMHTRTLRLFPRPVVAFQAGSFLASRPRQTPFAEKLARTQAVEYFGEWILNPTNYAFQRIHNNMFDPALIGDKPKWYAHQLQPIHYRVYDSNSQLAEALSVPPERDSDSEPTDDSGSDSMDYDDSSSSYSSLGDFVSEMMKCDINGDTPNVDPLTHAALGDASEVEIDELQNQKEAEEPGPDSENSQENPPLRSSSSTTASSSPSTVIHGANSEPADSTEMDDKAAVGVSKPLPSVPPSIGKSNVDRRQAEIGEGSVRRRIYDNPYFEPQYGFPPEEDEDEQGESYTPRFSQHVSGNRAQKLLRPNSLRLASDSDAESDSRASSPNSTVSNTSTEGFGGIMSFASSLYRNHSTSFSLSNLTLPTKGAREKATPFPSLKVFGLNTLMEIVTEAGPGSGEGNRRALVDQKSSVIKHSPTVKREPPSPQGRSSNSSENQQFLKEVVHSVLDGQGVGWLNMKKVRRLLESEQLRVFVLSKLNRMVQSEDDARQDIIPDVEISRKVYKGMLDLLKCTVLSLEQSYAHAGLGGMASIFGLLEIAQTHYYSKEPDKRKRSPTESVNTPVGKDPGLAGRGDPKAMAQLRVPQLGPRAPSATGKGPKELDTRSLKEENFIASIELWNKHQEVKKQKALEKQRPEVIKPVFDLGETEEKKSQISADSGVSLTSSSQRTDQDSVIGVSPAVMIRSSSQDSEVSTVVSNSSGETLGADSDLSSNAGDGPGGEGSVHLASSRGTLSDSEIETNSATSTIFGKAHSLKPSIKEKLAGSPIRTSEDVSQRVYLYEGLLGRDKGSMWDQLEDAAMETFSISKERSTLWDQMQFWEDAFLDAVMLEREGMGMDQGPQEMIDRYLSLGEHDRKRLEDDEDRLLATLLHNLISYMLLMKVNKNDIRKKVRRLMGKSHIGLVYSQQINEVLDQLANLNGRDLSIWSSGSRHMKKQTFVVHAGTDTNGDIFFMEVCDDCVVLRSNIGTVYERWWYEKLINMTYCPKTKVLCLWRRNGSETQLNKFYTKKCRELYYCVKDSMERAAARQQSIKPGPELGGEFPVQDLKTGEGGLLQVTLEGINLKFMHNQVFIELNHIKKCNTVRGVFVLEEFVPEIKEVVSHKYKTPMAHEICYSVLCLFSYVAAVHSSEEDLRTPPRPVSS
UniProt P49137, whole entry, looked up: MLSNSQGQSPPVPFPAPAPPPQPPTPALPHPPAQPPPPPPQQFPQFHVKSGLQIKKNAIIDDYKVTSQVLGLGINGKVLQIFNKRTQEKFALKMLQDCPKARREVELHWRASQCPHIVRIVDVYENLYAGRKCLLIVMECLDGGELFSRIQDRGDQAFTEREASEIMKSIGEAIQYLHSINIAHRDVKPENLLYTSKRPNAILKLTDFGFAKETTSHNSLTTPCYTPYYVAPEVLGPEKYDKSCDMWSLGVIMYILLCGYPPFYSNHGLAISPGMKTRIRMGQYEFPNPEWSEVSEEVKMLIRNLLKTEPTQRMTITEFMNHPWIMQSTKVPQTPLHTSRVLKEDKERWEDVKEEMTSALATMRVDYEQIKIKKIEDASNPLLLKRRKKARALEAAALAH
UniProt Q9Y6D9: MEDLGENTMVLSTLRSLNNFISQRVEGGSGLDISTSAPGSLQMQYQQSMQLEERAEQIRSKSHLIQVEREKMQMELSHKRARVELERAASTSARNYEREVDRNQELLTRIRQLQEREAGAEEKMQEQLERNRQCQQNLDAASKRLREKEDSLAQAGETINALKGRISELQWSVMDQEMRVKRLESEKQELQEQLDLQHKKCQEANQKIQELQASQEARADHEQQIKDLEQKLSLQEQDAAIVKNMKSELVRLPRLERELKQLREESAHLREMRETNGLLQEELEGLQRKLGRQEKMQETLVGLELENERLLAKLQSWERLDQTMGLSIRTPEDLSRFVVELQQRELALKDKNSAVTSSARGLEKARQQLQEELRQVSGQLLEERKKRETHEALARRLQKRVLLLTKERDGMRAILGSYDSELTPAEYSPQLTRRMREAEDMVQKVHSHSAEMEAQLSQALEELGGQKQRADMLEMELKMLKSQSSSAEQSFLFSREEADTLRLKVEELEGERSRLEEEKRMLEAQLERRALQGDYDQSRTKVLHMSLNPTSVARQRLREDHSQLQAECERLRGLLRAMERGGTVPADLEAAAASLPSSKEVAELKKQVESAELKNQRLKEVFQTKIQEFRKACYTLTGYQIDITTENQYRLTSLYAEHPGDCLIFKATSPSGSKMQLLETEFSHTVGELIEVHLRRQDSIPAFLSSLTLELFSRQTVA

Legend:
Experiment in all cases: log2 fold change, soluble protein after heating vs DMSO (PISA); higher = thermal stabilisation; K562 lysate, 10 uM; active = over 0.2 and 3.5 SD of the protein, either way, in both replicates (recomputed)
vemurafenib = compound: CCCS(=O)(=O)Nc1ccc(F)c(C(=O)c2c[nH]c3ncc(-c4ccc(Cl)cc4)cc23)c1F [vemurafenib]
How it was run: (§1)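 Soluble protein was defined as the supernatant remaining after 21,000xg for 90 min, following pooling of heated aliquots and adjustment to 0.5% NP-40 at 4°C. Before that, crude K562 extract at 1 mg/mL protein in PBS pH 7.4 with 1 mM MgCl2 was treated with 10 μM compound for 30 min and heated for 3 min across 48°C-58°C. Quantification used TMTpro 16plex LC-MS/MS with channel sums equalised, and values are log-two fold changes in thermal stability relative to solvent controls from duplicates.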

[1] = compound: CCCS(=O)(=O)Nc1ccc(F)c(C(=O)c2c[nH]c3ncc(Cl)cc23)c1F
How it was run: as §1

barasertib = compound: CCN(CCCOc1ccc2c(Nc3cc(CC(=O)Nc4cccc(F)c4)[nH]n3)ncnc2c1)CCOP(=O)(O)O [barasertib]
How it was run: as §1

[2] = compound: CC[C@@H]1C(=O)N(C)c2cnc(Nc3ccc(C(=O)NC4CCN(C)CC4)cc3OC)nc2N1C1CCCC1
How it was run: as §1

volasertib = compound: CC[C@@H]1C(=O)N(C)c2cnc(Nc3ccc(C(=O)N[C@H]4CC[C@H](N5CCN(CC6CC6)CC5)CC4)cc3OC)nc2N1C(C)C [volasertib]
How it was run: as §1

[3] = compound: CCn1c(C(=O)N(C2CC2)C2CC2)cc2c3c(ncn3C)c(Nc3cc(C)n(C)n3)nc21
How it was run: as §1

[4] = compound: CCn1cc(-c2ccnc3[nH]c(-c4cccc(CN(C)C)c4)cc23)c(-c2ccc(NC(=O)N(C)C)cc2)n1
How it was run: as §1

[5] = compound: CN1CCC(CNc2ccc3ncc(-c4cccc(OC(F)(F)F)c4)n3n2)CC1
How it was run: as §1

saracatinib = compound: CN1CCN(CCOc2cc(OC3CCOCC3)c3c(Nc4c(Cl)ccc5c4OCO5)ncnc3c2)CC1 [saracatinib]
How it was run: as §1

sotrastaurin = compound: CN1CCN(c2nc(C3=C(c4c[nH]c5ccccc45)C(=O)NC3=O)c3ccccc3n2)CC1 [sotrastaurin]
How it was run: as §1

alvocidib = compound: CN1CC[C@H](c2c(O)cc(O)c3c(=O)cc(-c4ccccc4Cl)oc23)[C@H](O)C1 [alvocidib]
How it was run: as §1

Tubastatin A = compound: CN1CCc2c(c3ccccc3n2Cc2ccc(C(=O)NO)cc2)C1 [Tubastatin A]
How it was run: as §1

[6] = compound: CNC(=O)C1=CC=CC=C1NC2=NC(=NC=C2Cl)NC3=C(C=C(C=C3)N4CCOCC4)OC
How it was run: as §1

defactinib = compound: CNC(=O)c1ccc(Nc2ncc(C(F)(F)F)c(NCc3nccnc3N(C)S(C)(=O)=O)n2)cc1 [defactinib]
How it was run: as §1

[7] = compound: CNc1nc(-c2ccc3c(N)n[nH]c3c2)cc(N2C[C@@H](C(=O)NC3CCCCC3)CC[C@H]2C)n1
How it was run: as §1

encorafenib = compound: COC(=O)N[C@@H](C)CNc1nccc(-c2cn(C(C)C)nc2-c2cc(Cl)cc(NS(C)(=O)=O)c2F)n1 [encorafenib]
How it was run: as §1

[8] = compound: COC(=O)[C@H](CCSC)NC(=O)C1=C(C=C(C=C1)NC[C@H](CS)N)C2=CC=CC=C2
How it was run: as §1

alisertib = compound: COc1cc(Nc2ncc3c(n2)-c2ccc(Cl)cc2C(c2c(F)cccc2OC)=NC3)ccc1C(=O)O [alisertib]
How it was run: as §1

[9] = compound: COc1cc2nc(-c3cc(F)ccc3O)nc(N[C@@H]3CNC[C@H]3C(C)(C)O)c2cc1OC
How it was run: as §1

gefitinib = compound: COc1cc2ncnc(Nc3ccc(F)c(Cl)c3)c2cc1OCCCN1CCOCC1 [gefitinib]
How it was run: as §1

Measured: log2 fold change

MAPK8 isoform 3 (UniProt P45983)
active: [6] 0.541
inactive: vemurafenib 0.06 | [1] 0.022 | barasertib 0.007 | [2] -0.123 | volasertib -0.02 | [3] -0.005 | [4] 0.013 | [5] 0.055 | saracatinib 0.027 | sotrastaurin 0.01 | alvocidib 0.01 | Tubastatin A -0.111 | defactinib -0.07 | [7] -0.144 | encorafenib 0.135 | [8] 0 | alisertib -0.022 | [9] 0.003 | gefitinib -0.042

LTN1 isoform 3 (UniProt O94822)
inactive: vemurafenib 0.005 | [1] 0.022 | barasertib 0.034 | [2] -0.06 | volasertib -0.041 | [3] -0.004 | [4] 0.035 | [5] -0.106 | saracatinib 0.04 | sotrastaurin 0.03 | alvocidib 0.016 | Tubastatin A -0.259 | [6] -0.014 | defactinib -0.009 | [7] -0.063 | encorafenib 0.034 | [8] -0.072 | alisertib 0.017 | [9] 0.035 | gefitinib -0.021

MAP7D1 (UniProt Q3KQU3)
inactive: vemurafenib 0.09 | [1] 0.036 | barasertib 0.007 | [2] 0.107 | volasertib -0.019 | [3] -0.007 | [4] 0.025 | [5] -0.05 | saracatinib 0.072 | sotrastaurin 0.03 | alvocidib -0.061 | Tubastatin A -0.032 | [6] 0.066 | defactinib 0.02 | [7] 0.041 | encorafenib 0.034 | [8] -0.016 | alisertib -0.036 | [9] 0.005 | gefitinib -0.006

MACC1 (UniProt Q6ZN28)
inactive: vemurafenib -0.015 | [1] 0.066 | barasertib 0 | [2] -0.036 | volasertib 0.004 | [3] -0.016 | [4] -0.016 | [5] 0.006 | saracatinib -0.03 | sotrastaurin 0.023 | alvocidib 0.049 | Tubastatin A -0.052 | [6] 0.021 | defactinib -0.029 | [7] -0.031 | encorafenib 0.023 | [8] 0.026 | alisertib 0.038 | [9] 0.019 | gefitinib 0

MAT2B (UniProt Q9NZL9)
inactive: vemurafenib 0.036 | [1] 0.016 | barasertib 0.001 | [2] -0.019 | volasertib -0.006 | [3] -0.015 | [4] 0.13 | [5] 0 | saracatinib -0.018 | sotrastaurin 0.013 | alvocidib -0.028 | Tubastatin A 0.063 | [6] -0.013 | defactinib 0.003 | [7] -0.01 | encorafenib -0.009 | [8] -0.006 | alisertib 0.032 | [9] 0.016 | gefitinib -0.006

MAN1B1 (UniProt Q9UKM7)
inactive: vemurafenib 0.072 | [1] -0.04 | barasertib 0.068 | [2] -0.034 | volasertib -0.018 | [3] -0.041 | [4] -0.075 | [5] 0.111 | saracatinib 0.024 | sotrastaurin 0.053 | alvocidib -0.056 | Tubastatin A 0.008 | [6] 0.014 | defactinib 0.028 | [7] -0.001 | encorafenib 0.073 | [8] -0.111 | alisertib 0.086 | [9] -0.005 | gefitinib 0.013

MAPK1 (UniProt P28482)
inactive: vemurafenib -0.022 | [1] -0.072 | barasertib -0.015 | [2] -0.013 | volasertib -0.009 | [3] 0.004 | [4] 0.004 | [5] -0.023 | saracatinib 0.002 | sotrastaurin -0.007 | alvocidib 0.051 | Tubastatin A 0.061 | defactinib 0.091 | [7] -0.007 | encorafenib -0.062 | [8] 0.031 | alisertib -0.038 | [9] 0.043 | gefitinib 0.014
active: [6] 0.242

MAGEB1 (UniProt P43366)
inactive: vemurafenib 0.022 | [1] 0.024 | barasertib -0.01 | [2] -0.08 | volasertib -0.038 | [3] -0.015 | [4] -0.014 | [5] -0.018 | saracatinib 0.029 | sotrastaurin 0.041 | alvocidib 0.021 | Tubastatin A -0.12 | [6] -0.011 | defactinib 0.004 | [7] -0.027 | encorafenib 0.037 | [8] 0.085 | alisertib -0.003 | [9] -0.024 | gefitinib -0.011

MAT2A (UniProt P31153)
inactive: vemurafenib -0.011 | [1] -0.023 | barasertib -0.032 | [2] -0.021 | volasertib 0.022 | [3] -0.017 | [4] 0.013 | [5] 0.008 | saracatinib -0.012 | sotrastaurin 0.009 | alvocidib -0.018 | Tubastatin A 0.056 | [6] -0.009 | defactinib -0.019 | [7] -0.018 | encorafenib -0.041 | [8] -0.003 | alisertib -0.013 | [9] 0.009 | gefitinib 0.01

LZTFL1 (UniProt Q9NQ48)
inactive: vemurafenib 0.013 | [1] 0.025 | barasertib 0.025 | [2] -0.005 | volasertib -0.003 | [3] -0.032 | [4] 0.036 | [5] -0.018 | saracatinib 0 | sotrastaurin 0.026 | alvocidib 0.014 | Tubastatin A -0.028 | [6] -0.015 | defactinib 0.005 | [7] 0.002 | encorafenib -0.002 | [8] -0.033 | alisertib -0.019 | [9] 0.005 | gefitinib 0.008

2 records picked at random from the list so far:
MAP7D1 (UniProt Q3KQU3)
inactive: vemurafenib 0.09 | [1] 0.036 | barasertib 0.007 | [2] 0.107 | volasertib -0.019 | [3] -0.007 | [4] 0.025 | [5] -0.05 | saracatinib 0.072 | sotrastaurin 0.03 | alvocidib -0.061 | Tubastatin A -0.032 | [6] 0.066 | defactinib 0.02 | [7] 0.041 | encorafenib 0.034 | [8] -0.016 | alisertib -0.036 | [9] 0.005 | gefitinib -0.006

MAT2B (UniProt Q9NZL9)
inactive: vemurafenib 0.036 | [1] 0.016 | barasertib 0.001 | [2] -0.019 | volasertib -0.006 | [3] -0.015 | [4] 0.13 | [5] 0 | saracatinib -0.018 | sotrastaurin 0.013 | alvocidib -0.028 | Tubastatin A 0.063 | [6] -0.013 | defactinib 0.003 | [7] -0.01 | encorafenib -0.009 | [8] -0.006 | alisertib 0.032 | [9] 0.016 | gefitinib -0.006

The results go on.

LZTR1 (UniProt Q8N653)
inactive: vemurafenib 0.026 | [1] -0.118 | barasertib 0.081 | [2] 0.002 | volasertib -0.125 | [3] -0.012 | [4] 0 | [5] -0.047 | saracatinib -0.031 | sotrastaurin 0.065 | alvocidib 0.178 | Tubastatin A -0.168 | [6] -0.001 | defactinib -0.036 | [7] -0.012 | encorafenib -0.039 | [8] 0.174 | alisertib -0.047 | [9] 0.137 | gefitinib 0.091

LYPLA2 (UniProt O95372)
inactive: vemurafenib -0.034 | [1] -0.017 | barasertib 0.087 | [2] -0.113 | volasertib 0.022 | [3] 0.063 | [4] -0.029 | [5] -0.117 | saracatinib 0.013 | sotrastaurin -0.083 | alvocidib 0.131 | Tubastatin A 0.029 | [6] 0.069 | defactinib 0.214 | [7] -0.03 | encorafenib -0.016 | [8] 0.014 | alisertib 0 | [9] -0.083 | gefitinib -0.181

MADD isoform 4 (UniProt Q8WXG6)
inactive: vemurafenib 0.009 | [1] 0.031 | barasertib 0.016 | [2] 0 | volasertib -0.01 | [3] 0 | [4] 0.001 | [5] -0.016 | saracatinib 0.036 | sotrastaurin 0.003 | alvocidib -0.016 | Tubastatin A -0.036 | [6] -0.005 | defactinib 0.006 | [7] -0.002 | encorafenib 0.036 | [8] -0.008 | alisertib -0.013 | [9] 0.033 | gefitinib 0.002

MAPKAPK2 (UniProt P49137)
inactive: vemurafenib 0.011 | [1] -0.043 | barasertib 0 | [2] -0.015 | volasertib -0.032 | [3] 0.009 | [4] -0.032 | [5] 0.002 | saracatinib -0.037 | sotrastaurin -0.015 | alvocidib 0.069 | Tubastatin A -0.078 | [6] 0.077 | defactinib -0.059 | [7] 0.025 | encorafenib -0.026 | [8] 0.046 | alisertib -0.023 | [9] 0.114 | gefitinib -0.013

MAPK14 (UniProt Q16539)
inactive: vemurafenib 0.175 | [1] 0.081 | barasertib 0.021 | [2] -0.192 | volasertib -0.056 | [3] -0.052 | [4] -0.035 | [5] 0.093 | saracatinib 0.226 | sotrastaurin -0.058 | alvocidib 0.007 | Tubastatin A -0.203 | [6] 0.38 | defactinib -0.053 | [7] -0.043 | encorafenib 0.488 | [8] 0.314 | alisertib -0.144 | [9] 0.011 | gefitinib 0.295

MAD1L1 (UniProt Q9Y6D9)
inactive: vemurafenib -0.017 | [1] 0.034 | barasertib 0.043 | [2] 0.041 | volasertib -0.035 | [3] 0.019 | [4] -0.03 | [5] -0.034 | saracatinib 0.004 | sotrastaurin -0.045 | alvocidib -0.013 | Tubastatin A -0.004 | [6] 0.02 | defactinib -0.032 | [7] 0.212 | encorafenib 0.067 | [8] 0.105 | alisertib 0.008 | [9] -0.029 | gefitinib -0.007
